From publication PMC5652735 come the findings set out here.

Amino acid sequences for entries named in this document (tags omitted).
UniProt Q15691: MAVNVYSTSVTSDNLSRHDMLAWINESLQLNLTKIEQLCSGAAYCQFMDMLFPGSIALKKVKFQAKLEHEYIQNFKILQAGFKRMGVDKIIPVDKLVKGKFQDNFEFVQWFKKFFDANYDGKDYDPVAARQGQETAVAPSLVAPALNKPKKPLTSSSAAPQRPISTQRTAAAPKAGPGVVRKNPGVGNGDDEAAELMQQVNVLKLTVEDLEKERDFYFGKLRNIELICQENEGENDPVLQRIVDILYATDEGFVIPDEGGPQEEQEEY

The assay addresses GST-EB1 (UniProt Q15691). The experiment in a line: pull-down; GST-EB1 bound to glutathione-Sepharose 4B incubated with cleared whole cell lysate (Hs578t or MDA-MB-436) for 1.5 h at 4 °C; 50 mM Tris-HCl pH 7.5, 100 mM NaCl, 2 mM MgCl2, 10% glycerol, 1% Nonidet P-40, 1 mM PMSF; three washes; western blot; GST-loaded beads as control; only the target purified. A general note: Immunoblotting shows a protein as a band on a membrane.

Results are given in words; binding and its absence hold for the method and conditions named. In cells and extracts the contact can be indirect. Some binding calls cover weakened binding; strength is not graded here.

B1: SEPT7 (protein, UniProt Q16181 1-437)
chain: MSVSARSAAAEERSVNSSTMVAQQKNLEGYVGFANLPNQVYRKSVKRGFEFTLMVVGESGLGKSTLINSLFLTDLYSPEYPGPSHRIKKTVQVEQSKVLIKEGGVQLLLTIVDTPGFGDAVDNSNCWQPVIDYIDSKFEDYLNAESRVNRRQMPDNRVQCCLYFIAPSGHGLKPLDIEFMKRLHEKVNIIPLIAKADTLTPEECQQFKKQIMKEIQEHKIKIYEFPETDDEEENKLVKKIKDRLPLAVVGSNTIIEVNGKRVRGRQYPWGVAEVENGEHCDFTILRNMLIRTHMQDLKDVTNNVHYENYRSRKLAAVTYNGVDNNKNKGQLTKSPLAQMEEERREHVAKMKKMEMEMEQVFEMKVKEKVQKLKDSEAELQRRHEQMKKNLEAQHKELEEKRRQFEDEKANWEAQQRILEQQNSSRTLEKNKKKGKIF
Consider B1, for which the binding entry was “binds”.

B2: SEPT2 (protein, UniProt Q15019 1-361)
chain: MSKQQPTQFINPETPGYVGFANLPNQVHRKSVKKGFEFTLMVVGESGLGKSTLINSLFLTDLYPERVIPGAAEKIERTVQIEASTVEIEERGVKLRLTVVDTPGYGDAINCRDCFKTIISYIDEQFERYLHDESGLNRRHIIDNRVHCCFYFISPFGHGLKPLDVAFMKAIHNKVNIVPVIAKADTLTLKERERLKKRILDEIEEHNIKIYHLPDAESDEDEDFKEQTRLLKASIPFSVVGSNQLIEAKGKKVRGRLYPWGVVEVENPEHNDFLKLRTMLITHMQDLQEVTQDLHYENFRSERLKRGGRKVENEDMNKDQILLEKEAELRRMQEMIARMQAQMQMQMQGGDGDGGALGHHV
For B2, the binding result is “binds”.
